Source: patent publication US20240083943A1 (IDP DISCOVERY PHARMA, S.L., priority 2020, published 2024)

Test: general procedure: Fmoc solid-phase peptide synthesis; Rink amide MBHA resin
Conditions: whole synthesis

Sequence | final HPLC purity [%]
KASVMRLTISYLRVR | 96.65
LDKASVMRLTISYLRVRK | 95.16
KASVMRLTISYLRV | 96.42

No end group written: not given here.
